PubChem BioAssay AID1224827, NIAID, 2016
This is one part, drawn at random, of about 3,800 reagents tested. Of all reagents, about 2,200 (57%) were called active. 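Active means a strong reporter change in either direction; calls are per siRNA, not per gene; qiagen siRNAs gave weaker effects.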 Reagents against one gene are numbered here. Further read-outs or replicates are left out here. Reagent sequences are not shown.

- Test: 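Retest primary hits on a TNF reporter with six siRNAs per gene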 (follow-up of hits)
- Cells: RAW264.7 G9 mouse macrophage reporter clone
- Reagent: single siRNA against mouse genes, 100 nM siRNA
- Duration: siRNA for 2 days, then LPS about 16 h
- Treatment: bacterial lipopolysaccharide (LPS), 10 ng/ml, cells fixed after overnight (about 16 h) stimulation
- Measured: 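Imaged nuclear TNF reporter intensity, background removed, scaled per plate and to non-targeting control wells, as z-scores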
- Reading the numbers: TNF reporter z-score, mean: higher = stronger Tnf promoter reporter signal
- Hit rule: 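Active siRNA: replicate-mean z-score of 2 or more, or -2 or less; no calls for control wells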

TNF reporter z-score, mean, by gene symbol and reagent
Scamp5 (GeneID 56807): #1 0.438 inactive; #2 -0.654 inactive; #3 -5.09 active; #4 0.709 inactive; #5 -0.171 inactive; #6 -0.708 inactive
Hopx (GeneID 74318): #1 -3.39 active; #2 -3.68 active; #3 -3.84 active; #4 3.84 active; #5 1.36 inactive; #6 -2.43 active
P2ry4 (GeneID 57385): #1 3.06 active; #2 2.46 active; #3 -3.71 active; #4 3.31 active; #5 -2.28 active; #6 -4.15 active
Fev (GeneID 260298): #1 2.47 active; #2 -2.04 active; #3 -3.22 active; #4 3.74 active; #5 -1.21 inactive; #6 -3.01 active
Syn2 (GeneID 20965): #1 4.2 active; #2 -2.86 active; #3 -4.81 active; #4 3.1 active; #5 -0.644 inactive; #6 -1.13 inactive
Prkab1 (GeneID 19079): #1 -1.25 inactive; #2 -1.97 inactive; #3 -4.95 active; #4 0.337 inactive; #5 -1.69 inactive; #6 -2.19 active
Eif3i (GeneID 54709): #1 4.25 active; #2 -0.728 inactive; #3 -4.56 active; #4 -2.08 active; #5 -3.69 active; #6 -4.7 active
Or4g17 (GeneID 258379): #1 -2.94 active; #2 -3.33 active; #3 -4.64 active; #4 0.734 inactive; #5 -0.769 inactive; #6 -1.46 inactive
Ly6g6d (GeneID 114654): #1 -0.191 inactive; #2 -2.5 active; #3 -5.62 active; #4 1.32 inactive; #5 -0.411 inactive; #6 -0.825 inactive
Ammecr1l (GeneID 225339): #1 0.505 inactive; #2 -4.57 active; #3 -5.3 active; #4 4.21 active; #5 0.875 inactive; #6 -1.39 inactive

Individual results from the entries so far:
Entry of Ammecr1l (GeneID 225339) #3 in “TNF reporter z-score, mean”: -5.3
Entry of Ly6g6d (GeneID 114654) #2 in “call”: active
Ammecr1l (GeneID 225339) #5, TNF reporter z-score, mean: 0.875
Entry for Hopx (GeneID 74318) #3 in “call”: active
